{"source": "patent US20030040478A1", "about": "“Chemotherapy treatment” (priority 2002, published 2003)", "key": {"[1]": {"system": "caspase-3", "test": "Caspase-3-like activity (Ac-DEVD-pNA) and procaspase-3 cleavage in BHK-GLP-2R cells", "format": "cell-based, Baby Hamster Kidney cells, rat receptor", "conditions": "irinotecan-treated BHK-GLP-2R cells; FIG. 5C"}, "[2]": {"system": "irinotecan-treated CD1 mice, jejunum and colon crypts", "test": "Crypt survival and cell number per hemi-crypt (histology) after irinotecan", "format": "in vivo, mouse", "procedure": "FIG. 3. Mean crypt survival (A and C) and mean cell number per hemi-crypt (B and D) from the midjejunum (A and B) and colon (C and D) of control and irinotecan-treated CD1 mice administered either saline (vehicle) or h[Gly2]-GLP-2 as a 3 day pretreatment regimen. Dotted lines represent line of best fit for data shown between 60 and 96 h. Five mice per treatment group were euthanized for analysis commencing immediately prior to the first of two injections of irinotecan (280 mg/kg per dose) and at 12 hr intervals up to 96 hrs. Crypt survival was measured along the entire bowel circumference, and the mean cell number per hemi-crypt determined in 50 consecutive intact crypts per animal. *=P<0.05, **=P<0.001, saline versus h[Gly2]-GLP-2 treated mice.\nHistological Analysis: Four- to six-micrometer histological cross sections from the intestine of each mouse were cut and stained with hematoxylin and eosin and micrometry was performed as described. Boushey, R. P. et al., Am. J. Physiol. 277: E937-E947, 1999. The number of cells per hemi-crypt column and the number of surviving crypts per circumference were measured in both the small and large intestine at 12 h intervals (n=5 mice per time point) following irinotecan administration as previously described. Wright, N. A. et al., Cell Tissue Kinet. 22: 425-50, 1989; Withers, H. R. et al., Int. J. Radiat. Biol. Relat. Stud. Phys. Chem. Med. 17: 261-7, 1970. Apoptotic cells within the small and large intestinal crypts were scored using the terminal deoxynucleotidyltrans-ferase (TdT) mediated, dUTP-nick end labeling (TUNEL) assay and by their morphological appearance after staining with hematoxylin and eosin. An apoptosis cell index was obtained on a positional basis for all intact half-crypts present in an entire jejunal and colonic cross-section per mouse, as described previously, Pritchard, D. M. et al., Cancer Res. 58: 5453-65, 1998; Potten, C. S. et al., Br. J. Cancer 78: 993-1003, 1998; Ijiri, K. et al., Br. J. Cancer. 47 175-85, 1983, 24 hours following the first dose of irinotecan. Extensive crypt damage precluded an accurate positional analysis of apoptotic events beyond this time point. All slides were scored in a blinded fashion."}, "[3]": {"system": "irinotecan-treated mice", "test": "Leukocyte count after irinotecan", "format": "in vivo, mouse", "conditions": "vs saline pretreatment, FIG. 2B", "procedure": "(§1) FIG. 2. (A) Prevalence of positive bacterial aerobic cultures from mesenteric, splenic, and liver homogenates and whole blood. Groups of mice (n=20 mice for each treatment group) were pretreated for 3 days with either saline or h[Gly2]-GLP-2 as shown in FIG. 1A and euthanized 96 hrs after commencing irinotecan treatment (two injections of 280 mg/kg per dose). *=P<0.05, saline versus h[Gly2]-GLP-2 treated mice after irinotecan. […] (B) The leukocyte count in saline- and h[Gly2]-GLP-2 treated control and irinotecan-treated mice. + and *=p<0.05 for saline- and h[Gly2]-GLP-2-treated groups versus irinotecan-treated mice. #=P<0.05, irinotecan-treated mice pretreated with saline versus h[Gly2]-GLP-2.\nLeukocyte Count: Whole blood samples were collected in venipuncture tubes containing EDTA and analyzed using an automated whole blood sorter calibrated for mouse samples. Blood smears were performed on all samples to confirm the automated analysis."}, "[4]": {"system": "BHK-GLP-2R cells (rat GLP-2 receptor)", "test": "Cell viability after irinotecan in BHK-GLP-2R cells", "format": "cell-based, Baby Hamster Kidney cells", "conditions": "40 nM pretreatment for 36 hrs prior to irinotecan 10 uM, FIG. 5A"}, "[5]": {"system": "irinotecan-treated mice", "format": "in vivo, mouse", "conditions": "all organs examined, 96 hrs following irinotecan; P<0.05 vs saline; FIG. 2A", "procedure": "as §1\nMicrobiology: At various time points following chemotherapy administration, aliquots of whole blood and tissue homogenates obtained using sterile technique were plated on blood agar plates and incubated at 37° C. for 48 hrs."}, "[6]": {"system": "BALB/c mice inoculated with CT-26 murine colon carcinoma cells", "test": "CT-26 tumour-bearing BALB/c mice, cyclical irinotecan", "format": "in vivo, mouse"}, "[7]": {"system": "mice", "conditions": "Benjamin et al. 2000; cited from earlier work"}, "[8]": {"system": "caspase-8-like activity", "test": "Caspase-8-like enzymatic activity (Ac-IETD-pNA) in BHK-GLP-2R cells", "format": "cell-based, Baby Hamster Kidney cells, rat receptor", "conditions": "irinotecan-treated BHK-GLP-2R cells; p<0.05; FIG. 5B"}, "[9]": {"system": "poly-ADP ribose polymerase (PARP)", "test": "Western blot analysis of PARP cleavage in BHK-GLP-2R cells", "format": "cell-based, Baby Hamster Kidney cells, rat receptor", "conditions": "irinotecan-treated BHK-GLP-2R cells; FIG. 5D"}, "[10]": {"system": "BHK-pcDNA3 cells", "test": "Cell viability after irinotecan in control BHK-pcDNA3 cells", "format": "cell-based, Baby Hamster Kidney cells", "conditions": "pretreatment for 36 hrs prior to irinotecan, FIG. 5A"}, "[11]": {"system": "procaspase 8", "test": "Procaspase 8 cleavage by Western blotting in colon", "format": "in vivo, mouse", "conditions": "both 72 and 96 h after irinotecan, FIG. 4C"}, "[12]": {"system": "caspase-9-like activity", "test": "Caspase-9-like enzymatic activity (Ac-LEHD-pNA) in BHK-GLP-2R cells", "format": "cell-based, Baby Hamster Kidney cells, rat receptor", "conditions": "irinotecan-treated cells; FIG. 5B"}, "[13]": {"system": "intestinal crypt compartment of irinotecan-treated mice", "test": "Positional detection of apoptotic crypt cells (TUNEL assay)", "format": "in vivo, mouse", "conditions": "P<0.05 vs saline"}}, "note": "At least one peptide structure holds a part that was inferred or is arguable (an end, a ring closure or a residue)."}
{"smiles": "CC[C@H](C)[C@H](NC(=O)[C@H](Cc1ccccc1)NC(=O)[C@H](CC(=O)O)NC(=O)[C@H](CCCNC(=N)N)NC(=O)[C@H](C)NC(=O)[C@H](C)NC(=O)[C@H](CC(C)C)NC(=O)[C@H](CC(N)=O)NC(=O)[C@H](CC(=O)O)NC(=O)[C@H](CC(C)C)NC(=O)[C@@H](NC(=O)[C@@H](NC(=O)[C@H](CC(N)=O)NC(=O)[C@H](CCSC)NC(=O)[C@H](CCC(=O)O)NC(=O)[C@H](CC(=O)O)NC(=O)[C@H](CO)NC(=O)[C@H](Cc1ccccc1)NC(=O)[C@H](CO)NC(=O)CNC(=O)[C@H](CC(=O)O)NC(=O)CNC(=O)[C@@H](N)Cc1c[nH]cn1)[C@@H](C)O)[C@@H](C)CC)C(=O)N[C@@H](CC(N)=O)C(=O)N[C@@H](Cc1c[nH]c2ccccc12)C(=O)N[C@@H](CC(C)C)C(=O)N[C@H](C(=O)N[C@@H](CCC(N)=O)C(=O)N[C@H](C(=O)N[C@@H](CCCCN)C(=O)N[C@H](C(=O)N[C@H](C(=O)N[C@@H](CC(=O)O)C(=O)O)[C@@H](C)O)[C@@H](C)CC)[C@@H](C)O)[C@@H](C)CC", "note": "[h[Gly2]-GLP-2]", "values": [{"measurement": "irinotecan-induced cleavage of caspase-3 substrate Ac-DEVD-pNA", "setting": "[1]", "value": "reduced the irinotecan-induced cleavage of the caspase-3 substrate Ac-DEVD-pNA"}, {"measurement": "procaspase-3 cleavage into the active p17 subunit", "setting": "[1]", "value": "decreased procaspase-3 cleavage"}, {"measurement": "crypt loss, colon", "setting": "[2]; colon, following irinotecan, FIG. 3C", "value": "prevented crypt loss"}, {"measurement": "crypt cell number, colon", "setting": "[2]; colon, following irinotecan, FIG. 3D", "value": "enhanced crypt cell number"}, {"measurement": "crypt cell number, jejunum", "setting": "[2]; jejunum, 96 hrs following irinotecan, FIG. 3B", "value": "restored crypt cell number"}, {"measurement": "rate of crypt loss, jejunum", "setting": "[2]; jejunum, following irinotecan, FIG. 3A", "value": "significantly reduced the rate of crypt loss"}, {"measurement": "mean white blood cell count", "setting": "[3]", "value": "modestly but significantly higher"}, {"measurement": "cell viability", "setting": "[4]", "value": "significant improvement in cell viability"}, {"measurement": "bacterial culture positivity", "setting": "[5]", "value": "significant reduction in bacterial culture positivity"}, {"measurement": "irinotecan-induced tumour regression (tumour inhibition ratio)", "setting": "[6]; FIG. 1D", "value": "did not impair irinotecan-induced tumour regression"}, {"measurement": "weight loss", "setting": "[6]; vs irinotecan alone, p<0.05, data not shown", "value": "significantly less weight loss"}, {"measurement": "intestinal barrier function", "setting": "[7]", "value": "markedly enhanced intestinal barrier function"}, {"measurement": "macromolecular flux", "setting": "[7]", "value": "reduced macromolecular flux"}, {"measurement": "caspase-8-like enzymatic activity", "setting": "[8]", "value": "significantly reduced caspase-8-like enzymatic activity"}, {"measurement": "irinotecan-induced cleavage of PARP", "setting": "[9]", "value": "decreased the irinotecan-induced cleavage of poly-ADP ribose polymerase (PARP)"}, {"measurement": "cell viability", "setting": "[10]", "value": "but not control BHK cells"}, {"measurement": "procaspase-8 cleavage", "setting": "[11]", "value": "significant reduction in procaspase-8 cleavage"}, {"measurement": "caspase-9-like enzymatic activity", "setting": "[12]", "value": "had no effect"}, {"measurement": "apoptosis in the colon", "setting": "[13]; crypt cell positions 3-5, FIG. 4B", "value": "reduced apoptosis"}, {"measurement": "apoptosis in the jejunum", "setting": "[13]; crypt cell positions 4-5, FIG. 4A", "value": "significantly reduced apoptosis"}]}
